Reference: PubChem BioAssay AID1671195 (Yale University, 2021)

Screen: 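Knockdowns that increase or decrease uptake of fluorescent LDL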 (primary screen)
Cells: human Huh7 hepatoma cells
Knock-down reagent: siRNA pool against human genes, 18 nM
Time to read-out: about 2 to 2.5 days of knockdown, then 8 h LDL uptake
Conditions: DiI-labelled LDL at 30 µg/ml for 8 h, in lipoprotein-deficient serum medium
Detection: 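Per-cell DiI-LDL intensity by automated imaging; well means scaled to the plate median and given as a robust z-score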
Scale: robust z-score: higher = more LDL uptake after knockdown
Active means: 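a gene counts as active if at least two replicate z-scores exceed ±2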
This is a random part of about 22,000 reagents tested. Of all reagents, about 1,510 (6.9%) were called active. 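Active includes knockdowns raising or lowering LDL uptake; positive z-scores mean more uptake, negative mean less.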 Unmarked entries are inactive. The numbers tell different reagents against one gene apart.

gene | reagent no. | robust z-score, replicate 1 | robust z-score, replicate 2 | robust z-score, replicate 3
MTHFD2P1 | 1 | -0.617 | -0.497 | -0.446
KLHL3 | 1 | 0.195 | -1.22 | -0.743
MRPL34 | 1 | -0.38 | -0.418 | -0.707
OTULIN | 1 | -0.0537 | 0.608 | 0.64
BBIP1 | 1 | 0.0447 | -1.32 | -0.701
LOC441343 (retired record) | 1 | -0.846 | -1.41 | -0.878
LOC392337 (retired record) | 1 | -0.835 | 0.235 | 0.0652
TDRD7 | 1 | -0.0879 | 0.443 | 0.534
EGF | 1 | -0.71 | 1.41 | 0.1
DCTN3 | 1 | 0.396 | -0.297 | 0.957
GABRB3 | 1 | 0.155 | -0.86 | 0.141
MGAT3 | 1 | -2.63 | 1.35 | 1.11
VNN2 | 1 | -2.26 | -1.1 | -1.3
LIN37 | 1 | -0.847 | -1.81 | -2.19
MTCL2 | 1 | 2.08 (active) | 1.91 | 0.726
MTCL2 | 2 | 1.21 | 1.22 | 0.398
DROSHA | 1 | -0.856 | -1.33 | -0.814
LRIG1 | 1 | 1.57 | 1.26 | 1.37
PCDHB10 | 1 | 2.18 (active) | 2.4 | 1.86
RHEX | 1 | -0.457 | -0.591 | -0.763
CACNA1E | 1 | 0.41 | 0.15 | 0.166
LINC00410 | 1 | 1.1 | 0.751 | 0.652
PROC | 1 | -1.05 | -0.894 | -0.747
PER1 | 1 | -0.0727 | 0.155 | 0.135
GARIN4 | 1 | 0.305 | -0.605 | 0.692
DNPH1 | 1 | -0.838 | -1.39 | -1.82
LOC440705 (retired record) | 1 | 1 | 1.42 | 1.79
NKAIN2 | 1 | -1.28 | -0.987 | -1.36
